Assay results from paper PMC4264851.
These are yes or no findings as the source states them, for the method shown. For some of these results: In cells and extracts the contact can be indirect. Some binding calls cover weakened binding; strength is not graded here. Tags and fused reporters may be left off the sequences shown. Blank lines part the entries; values can stand above or below the binder they belong to.

How the values were obtained:
[1] = target: T1, Pwp2-TAP (S. cerevisiae) (UniProt P25635); assay: SEC; bacmid K1991; IgG Sepharose/TEV eluate (Pwp2-TAP) fractionated on Superose 6; fractions by SDS-PAGE, MS and Western blot (anti-CBP, anti-HA)
T1 sequence: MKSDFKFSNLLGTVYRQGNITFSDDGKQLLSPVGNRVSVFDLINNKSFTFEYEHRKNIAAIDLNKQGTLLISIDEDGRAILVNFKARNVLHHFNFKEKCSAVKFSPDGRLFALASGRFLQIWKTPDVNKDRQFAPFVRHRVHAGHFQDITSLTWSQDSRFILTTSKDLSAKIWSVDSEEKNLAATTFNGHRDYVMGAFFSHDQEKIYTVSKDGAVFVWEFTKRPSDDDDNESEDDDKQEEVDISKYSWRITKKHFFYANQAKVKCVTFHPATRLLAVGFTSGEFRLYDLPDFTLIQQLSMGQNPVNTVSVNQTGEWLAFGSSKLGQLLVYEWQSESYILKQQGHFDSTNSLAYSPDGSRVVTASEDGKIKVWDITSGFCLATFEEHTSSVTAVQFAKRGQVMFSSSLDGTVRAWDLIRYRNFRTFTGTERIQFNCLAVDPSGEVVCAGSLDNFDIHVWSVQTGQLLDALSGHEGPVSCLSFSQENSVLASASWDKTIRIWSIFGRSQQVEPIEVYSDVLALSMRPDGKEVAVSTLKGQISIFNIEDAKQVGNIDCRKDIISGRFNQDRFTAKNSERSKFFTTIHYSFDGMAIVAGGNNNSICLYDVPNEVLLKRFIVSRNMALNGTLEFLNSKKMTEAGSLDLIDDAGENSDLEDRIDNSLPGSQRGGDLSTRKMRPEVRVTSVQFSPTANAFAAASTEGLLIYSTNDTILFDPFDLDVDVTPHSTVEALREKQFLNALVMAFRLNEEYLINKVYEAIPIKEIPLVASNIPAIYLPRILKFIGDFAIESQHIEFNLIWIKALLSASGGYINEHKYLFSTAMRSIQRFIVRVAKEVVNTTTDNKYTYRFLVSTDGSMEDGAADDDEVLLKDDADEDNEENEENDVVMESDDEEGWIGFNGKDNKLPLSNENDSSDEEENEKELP

[2] = target: T2, Utp4-TAP (S. cerevisiae) (UniProt Q06679); assay: co-IP; only Utp4-TAP, Utp8-FLAG and Utp9 co-expressed in SF21 cells (bacmid K2212); bait Utp4-TAP on IgG-coupled beads; resin before TEV elution analysed by Western blot with anti-FLAG antibody
T2 sequence: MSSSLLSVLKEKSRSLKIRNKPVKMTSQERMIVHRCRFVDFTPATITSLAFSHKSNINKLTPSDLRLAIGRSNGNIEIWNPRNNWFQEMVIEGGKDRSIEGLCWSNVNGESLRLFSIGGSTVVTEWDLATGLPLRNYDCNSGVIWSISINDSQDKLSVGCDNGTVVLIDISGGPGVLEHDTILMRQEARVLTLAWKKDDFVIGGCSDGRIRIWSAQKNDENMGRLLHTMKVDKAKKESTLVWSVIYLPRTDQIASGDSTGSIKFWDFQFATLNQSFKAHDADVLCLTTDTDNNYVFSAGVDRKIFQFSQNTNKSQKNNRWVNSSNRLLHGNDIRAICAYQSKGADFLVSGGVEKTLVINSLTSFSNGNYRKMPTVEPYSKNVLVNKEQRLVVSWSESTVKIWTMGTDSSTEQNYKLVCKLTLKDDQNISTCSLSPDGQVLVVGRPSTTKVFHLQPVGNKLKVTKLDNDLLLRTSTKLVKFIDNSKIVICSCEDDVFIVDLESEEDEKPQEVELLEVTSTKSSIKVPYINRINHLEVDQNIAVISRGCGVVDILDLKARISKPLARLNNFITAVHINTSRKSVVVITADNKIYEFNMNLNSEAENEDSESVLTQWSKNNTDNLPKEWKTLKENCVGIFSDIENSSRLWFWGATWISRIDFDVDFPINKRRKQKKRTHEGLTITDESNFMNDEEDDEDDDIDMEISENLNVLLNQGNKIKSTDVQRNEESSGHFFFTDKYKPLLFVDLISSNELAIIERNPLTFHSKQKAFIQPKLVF

binding [1]: binds
B1: Utp21 (protein, UniProt Q06078 1-939)
chain: MSIDLKKRKVEEDVRSRGKNSKIFSPFRIIGNVSNGVPFATGTLGSTFYIVTCVGKTFQIYDANTLHLLFVSEKETPSSIVALSAHFHYVYAAYENKVGIYKRGIEEHLLELETDANVEHLCIFGDYLCASTDDNSIFIYKKSDPQDKYPSEFYTKLTVTEIQGGEIVSLQHLATYLNKLTVVTKSNVLLFNVRTGKLVFTSNEFPDQITTAEPAPVLDIIALGTVTGEVIMFNMRKGKRIRTIKIPQSRISSLSFRTDGSSHLSVGTSSGDLIFYDLDRRSRIHVLKNIHRESYGGVTQATFLNGQPIIVTSGGDNSLKEYVFDPSLSQGSGDVVVQPPRYLRSRGGHSQPPSYIAFADSQSHFMLSASKDRSLWSFSLRKDAQSQEMSQRLHKKQDGGRVGGSTIKSKFPEIVALAIENARIGEWENIITAHKDEKFARTWDMRNKRVGRWTFDTTDDGFVKSVAMSQCGNFGFIGSSNGSITIYNMQSGILRKKYKLHKRAVTGISLDGMNRKMVSCGLDGIVGFYDFNKSTLLGKLKLDAPITAMVYHRSSDLFALALDDLSIVVIDAVTQRVVRQLWGHSNRITAFDFSPEGRWIVSASLDSTIRTWDLPTGGCIDGIIVDNVATNVKFSPNGDLLATTHVTGNGICIWTNRAQFKTVSTRTIDESEFARMALPSTSVRGNDSMLSGALESNGGEDLNDIDFNTYTSLEQIDKELLTLSIGPRSKMNTLLHLDVIRKRSKPKEAPKKSEKLPFFLQLSGEKVGDEASVREGIAHETPEEIHRRDQEAQKKLDAEEQMNKFKVTGRLGFESHFTKQLREGSQSKDYSSLLATLINFSPAAVDLEIRSLNSFEPFDEIVWFIDALTQGLKSNKNFELYETFMSLLFKAHGDVIHANNKNQDIASALQNWEDVHKKEDRLDDLVKFCMGVAAFVTTA

binding [2]: binds weakly
B3: Utp8-FLAG (protein, UniProt P53276 1-713)
chain: MPSLSQPFRLATLPKIASLSNFSLQADYVQVADGTFNESTNNITLGISGSSISQYIINPTPKLTFDYPIPSTNIITACNAEKGQANIDGNIEASTDDEANNEKTINTQKKRNVEIWAFGLMVNKGNYTLNVITKALEDTTDTSNDHLSESDIDNKAYTGSDEFLSQYKIKAKAKVMSIKIDTKNSLVIAILQNGLIEIFDFKLTLLHSFDISYDNLKYAKWFTENGTEYVFVLCPLQDDKVCYKLLELTDCGSGESSPIKELSSTIIEGFSFENSKLCYQFGKLYKLNQGKIYIYSLPHCQLQQVIEFPMVDKLSPGDDLISFQPVSVNRVLLTVNNVIYLLDLLHCSTLSQRELTHVKTFQLLKSAVINSEKSHNSKTIAIGISTKNGPNPTSSLEIINIDVGTNTLKDSLGKSFQVGNNDSSVILKPLFDDKDINDKRVKCNDVSGDSSVPVLHCNEVIEKLSALQDNDITSFDDIFFKELKIKEEHYTEKDRYISDPGFLNKVLDLIFGKFSGNDYPKTLTFLLTHPLFPLSRTRNLLSLLRDQPRLFKQAIVTCPNLPLNELLEELFSIRNRELLLDISFRILQDFTRDSIKQEMKKLSKLDVQNFIEFITSGGEDSSPECFNPSQSTQLFQLLSLVLDSIGLFSLEGALLENLTLYIDKQVEIAERNTELWNLIDTKGFQHGFASSTFDNGTSQKRALPTYTMEYLDI

More lines, now with the values behind:

B2: Utp12-FLAG (protein, UniProt Q12220 1-943)
chain: MVKSYQRFEQAAAFGVIASNANCVWIPASSGNSNGSGPGQLITSALEDVNIWDIKTGDLVSKLSDGLPPGASDARGAKPAECTYLEAHKDTDLLAVGYADGVIKVWDLMSKTVLLNFNGHKAAITLLQFDGTGTRLISGSKDSNIIVWDLVGEVGLYKLRSHKDSITGFWCQGEDWLISTSKDGMIKLWDLKTHQCIETHIAHTGECWGLAVKDDLLITTGTDSQVKIWKLDIENDKMGGKLTEMGIFEKQSKQRGLKIEFITNSSDKTSFFYIQNADKTIETFRIRKEEEIARGLKKREKRLKEKGLTEEEIAKSIKESYSSFILHPFQTIRSLYKIKSASWTTVSSSKLELVLTTSSNTIEYYSIPYEKRDPTSPAPLKTHTIELQGQRTDVRSIDISDDNKLLATASNGSLKIWNIKTHKCIRTFECGYALTCKFLPGGLLVILGTRNGELQLFDLASSSLLDTIEDAHDAAIWSLDLTSDGKRLVTGSADKTVKFWDFKVENSLVPGTKNKFLPVLKLHHDTTLELTDDILCVRVSPDDRYLAISLLDNTVKVFFLDSMKFYLSLYGHKLPVLSIDISFDSKMIITSSADKNIKIWGLDFGDCHKSLFAHQDSIMNVKFLPQSHNFFSCSKDAVVKYWDGEKFECIQKLYAHQSEVWALAVATDGGFVVSSSHDHSIRIWEETEDQVFLEEEKEKELEEQYEDTLLTSLEEGNGDDAFKADASGEGVEDEASGVHKQTLESLKAGERLMEALDLGIAEIEGLEAYNRDMKLWQRKKLGEAPIKPQGNAVLIAVNKTPEQYIMDTLLRIRMSQLEDALMVMPFSYVLKFLKFIDTVMQNKTLLHSHLPLICKNLFFIIKFNHKELVSQKNEELKLQINRVKTELRSALKSTEDDLGFNVQGLKFVKQQWNLRHNYEFVDEYDQQEKESNSARKRVFGTVI
binding [1]: binds

B4: Utp13 (protein, UniProt Q05946 1-817)
chain: MDLKTSYKGISLNPIYAGSSAVATVSENGKILATPVLDEINIIDLTPGSRKILHKISNEDEQEITALKLTPDGQYLTYVSQAQLLKIFHLKTGKVVRSMKISSPSYILDADSTSTLLAVGGTDGSIIVVDIENGYITHSFKGHGGTISSLKFYGQLNSKIWLLASGDTNGMVKVWDLVKRKCLHTLQEHTSAVRGLDIIEVPDNDEPSLNLLSGGRDDIINLWDFNMKKKCKLLKTLPVNQQVESCGFLKDGDGKRIIYTAGGDAIFQLIDSESGSVLKRTNKPIEELFIIGVLPILSNSQMFLVLSDQTLQLINVEEDLKNDEDTIQVTSSIAGNHGIIADMRYVGPELNKLALATNSPSLRIIPVPDLSGPEASLPLDVEIYEGHEDLLNSLDATEDGLWIATASKDNTAIVWRYNENSCKFDIYAKYIGHSAAVTAVGLPNIVSKGYPEFLLTASNDLTIKKWIIPKPTASMDVQIIKVSEYTRHAHEKDINALSVSPNDSIFATASYDKTCKIWNLENGELEATLANHKRGLWDVSFCQYDKLLATSSGDKTVKIWSLDTFSVMKTLEGHTNAVQRCSFINKQKQLISCGADGLIKIWDCSSGECLKTLDGHNNRLWALSTMNDGDMIVSADADGVFQFWKDCTEQEIEEEQEKAKLQVEQEQSLQNYMSKGDWTNAFLLAMTLDHPMRLFNVLKRALGESRSRQDTEEGKIEVIFNEELDQAISILNDEQLILLMKRCRDWNTNAKTHTIAQRTIRCILMHHNIAKLSEIPGMVKIVDAIIPYTQRHFTRVDNLVEQSYILDYALVEMDKLF
binding [1]: binds
